Laboratory results published in paper PMC10812921.
Results are given in words; binding and its absence hold for the method and conditions named. A result given as binding can be weak or reduced; the word gives no strength. Sequences can lack the tags named with a protein.

Protein sequences, listed by entry. Tags and fused reporters are not part of them. Lines headed by an entry give the natural chain unless they say otherwise; changes in a name come on top.
UniProt P14859: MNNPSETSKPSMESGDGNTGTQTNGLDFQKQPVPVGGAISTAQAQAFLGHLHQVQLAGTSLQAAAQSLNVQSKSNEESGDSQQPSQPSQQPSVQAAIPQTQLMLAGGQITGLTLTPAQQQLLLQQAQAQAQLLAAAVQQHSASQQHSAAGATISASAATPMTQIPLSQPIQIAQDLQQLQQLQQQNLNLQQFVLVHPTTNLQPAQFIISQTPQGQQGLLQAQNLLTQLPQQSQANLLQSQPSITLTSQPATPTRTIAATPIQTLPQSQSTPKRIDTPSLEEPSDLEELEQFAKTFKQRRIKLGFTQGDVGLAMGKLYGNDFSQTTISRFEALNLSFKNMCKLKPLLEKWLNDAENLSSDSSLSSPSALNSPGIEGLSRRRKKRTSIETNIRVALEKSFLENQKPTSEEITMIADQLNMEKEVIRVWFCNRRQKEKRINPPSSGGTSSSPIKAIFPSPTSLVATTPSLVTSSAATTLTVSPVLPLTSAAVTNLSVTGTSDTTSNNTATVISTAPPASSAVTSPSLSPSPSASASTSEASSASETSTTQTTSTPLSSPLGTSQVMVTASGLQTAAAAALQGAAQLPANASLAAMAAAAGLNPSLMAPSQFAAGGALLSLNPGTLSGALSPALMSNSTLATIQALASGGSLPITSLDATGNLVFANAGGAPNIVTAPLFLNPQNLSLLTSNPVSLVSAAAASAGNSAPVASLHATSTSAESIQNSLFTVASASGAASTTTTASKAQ
UniProt P09086: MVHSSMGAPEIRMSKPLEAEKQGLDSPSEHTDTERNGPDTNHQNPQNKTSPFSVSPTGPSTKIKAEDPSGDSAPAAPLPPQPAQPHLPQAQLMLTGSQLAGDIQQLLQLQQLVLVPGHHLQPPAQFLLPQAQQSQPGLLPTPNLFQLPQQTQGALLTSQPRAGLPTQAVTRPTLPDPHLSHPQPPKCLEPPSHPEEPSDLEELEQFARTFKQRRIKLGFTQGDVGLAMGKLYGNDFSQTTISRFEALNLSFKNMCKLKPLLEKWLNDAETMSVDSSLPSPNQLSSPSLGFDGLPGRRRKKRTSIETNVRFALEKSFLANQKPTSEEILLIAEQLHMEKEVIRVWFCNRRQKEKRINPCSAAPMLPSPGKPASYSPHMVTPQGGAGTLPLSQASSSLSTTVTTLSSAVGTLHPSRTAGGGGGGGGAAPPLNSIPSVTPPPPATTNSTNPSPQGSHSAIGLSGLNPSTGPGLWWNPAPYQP

Columns and labels:
[1] = target: tagged DNA-binding POU domain of human OCT1 (POU1) (human) (UniProt P14859); test: native gel or EMSA; ternary complex of POU domain, BOB1 and fluorescein-labelled double-stranded oligonucleotide (PORE^D in Figure 1; octamer variants in the Vk promoter context in Figure 4); 20 mM Tris-HCl pH 7.6, 10% glycerol, 0.14 M NaCl, 0.5 mM EDTA, 0.05% Triton X-100, 0.1 mg/mL BSA, 0.1 mg/mL poly[dI-dC], 5 mM DTT; 20 min at RT; native 6% PAGE in 0.5x TBE; both purified
[2] = target: tagged DNA-binding POU domain of human OCT2 (POU2) (human) (UniProt P09086); test: as above

B1: full-length human BOB1 protein, double-tagged (protein, UniProt Q16633 1-256)
chain: MLWQKPTAPEQAPAPARPYQGVRVKEPVKELLRRKRGHASSGAAPAPTAVVLPHQPLATYTTVGPSCLDMEGSVSAVTEEAALCAGWLSQPTPATLQPLAPWTPYTEYVPHEAVSCPYSADMYVQPVCPSYTVVGPSSVLTYASPPLITNVTTRSSATPAVGPPLEGPEHQAPLTYFPWPQPLSTLPTSTLQYQPPAPALPGPQFVQLPISIPEPVLQDMEDPRRAASSLTIDKLLLEEEDSDAYALNHTLSVEGF
[1]
  binding: binds
[2]
  binding: binds
